PubChem BioAssay AID743454 – Peter MacCallum Cancer Centre – 2014
Here is an unselected part of about 18,000 reagents. Of all reagents, 450 (2.5%) are marked active. 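Single biological run; no consistent viability z cut-off exists, so the class columns, not z-scores, define the calls.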 Entries without a mark were called inactive. Reagent sequences are not shown.

Test: 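Knock-downs lowering viability or raising caspase 3/7 activity in vorinostat-treated resistant cells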 (primary screen)
Cell system: human HCT116-VR colon cancer cells, selected for vorinostat resistance
Reagent: siRNA pool against human genes, 40 nM siRNA pool
Time to read-out: vorinostat for 24 h, read-out about 72 h after transfection
Treatment: vorinostat at 2.5 µM final
Measured: 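Cell viability by CellTiter-Fluor and caspase 3/7 activity by luminescence, each scaled to mock wells per plate, duplicates averaged, then robust z-scored over all plates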
Direction: viability robust z-score: higher = more viable cells than screen typical; caspase robust z-score: higher = more caspase 3/7 activity than screen typical
Active means: 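a knock-down is a hit when classed RV1 or RV2 for lowered viability, or CA1 or CA2 for caspase activation; those lethal without drug were dropped; hits were retested singly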

For KMT2E (lysine methyltransferase 2E (inactive)) [SID152147669], the entry reads viability hit class no change; caspase hit class no change; viability robust z-score -0.31; caspase robust z-score -0.55.
For TMIE (transmembrane inner ear) [SID152149982], the values are viability hit class no change; caspase hit class no change; viability robust z-score 0.2; caspase robust z-score 0.18.
OR5M8 (olfactory receptor family 5 subfamily M member 8) [SID134329901] showed viability hit class no change; caspase hit class no change; viability robust z-score 0.3; caspase robust z-score 0.48.
Knock-down of SLC1A2 [SID152154008] gave: viability hit class no change; caspase hit class no change; viability robust z-score 0.25; caspase robust z-score -1.18.
For FBLIM1 (filamin binding LIM protein 1) [SID135622607], the values are viability hit class no change; caspase hit class no change; viability robust z-score 0.34; caspase robust z-score 2.12.
PRY (PTPN13 like Y-linked) [SID152153197] showed viability hit class no change; caspase hit class no change; viability robust z-score -0.02; caspase robust z-score 0.85.
HSPA1B (heat shock protein family A (Hsp70) member 1B) [SID134309931] showed viability hit class no change; caspase hit class no change; viability robust z-score 0.08; caspase robust z-score -0.84.
After knock-down of TMSB4X (thymosin beta 4 X-linked) [SID135622120], the screen gave viability hit class no change; caspase hit class no change; viability robust z-score -0.42; caspase robust z-score -0.86.
Against SLC4A4 [SID152155827], the values are viability hit class no change; caspase hit class no change; viability robust z-score -0.8; caspase robust z-score -1.01.
After knock-down of ZNF146 (zinc finger protein 146) [SID135623790], the record shows viability hit class no change; caspase hit class no change; viability robust z-score 1.32; caspase robust z-score 0.
With knock-down of SELP (selectin P) [SID152150182], the record shows viability hit class no change; caspase hit class no change; viability robust z-score -0.84; caspase robust z-score 0.55.
After knock-down of SLC24A3 [SID134312512], the record shows viability hit class no change; caspase hit class no change; viability robust z-score -0.47; caspase robust z-score 1.58.
Knock-down of XRCC2 (X-ray repair cross complementing 2) [SID135620817] gave: viability hit class no change; caspase hit class no change; viability robust z-score 0.14; caspase robust z-score 0.28.
Against LAMTOR4 (late endosomal/lysosomal adaptor, MAPK and MTOR activator 4) [SID152156293], the entry reads viability hit class no change; caspase hit class no change; viability robust z-score -0.28; caspase robust z-score 0.43.

Reformatted: entries from further up.
{"target gene":"SELP (selectin P)","PubChem SID":"SID152150182","viability hit class":"no change","caspase hit class":"no change","viability robust z-score":-0.84,"caspase robust z-score":0.55}
{"target gene":"SLC24A3","PubChem SID":"SID134312512","viability hit class":"no change","caspase hit class":"no change","viability robust z-score":-0.47,"caspase robust z-score":1.58}
{"target gene":"XRCC2 (X-ray repair cross complementing 2)","PubChem SID":"SID135620817","viability hit class":"no change","caspase hit class":"no change","viability robust z-score":0.14,"caspase robust z-score":0.28}

The results go on.
DKK2 (dickkopf Wnt signaling pathway inhibitor 2) [SID135623957] scored viability hit class no change; caspase hit class no change; viability robust z-score -0.05; caspase robust z-score 1.73.
Against LYPD3 (LY6/PLAUR domain containing 3) [SID152154614], the entry reads viability hit class no change; caspase hit class no change; viability robust z-score 0.62; caspase robust z-score -0.06.
Knock-down of CEP135 (centrosomal protein 135) [SID152150947] came out at: viability hit class no change; caspase hit class no change; viability robust z-score -0.1; caspase robust z-score 0.06.
For B3GLCT (beta 3-glucosyltransferase) [SID152146927] the deposit lists viability hit class no change; caspase hit class no change; viability robust z-score -0.83; caspase robust z-score -0.49.
Depletion of RANBP3L (RAN binding protein 3 like) [SID135623500] resulted in: viability hit class no change; caspase hit class no change; viability robust z-score 0.06; caspase robust z-score -0.4.
PRAG1 (PEAK1 related, kinase-activating pseudokinase 1) [SID152147410] scored viability hit class no change; caspase hit class no change; viability robust z-score 0.28; caspase robust z-score 1.05.
ZNF107 (zinc finger protein 107) [SID152150249] scored viability hit class no change; caspase hit class no change; viability robust z-score -1.73; caspase robust z-score 1.11.
